The target of this experiment is T1, FLAG-CDK5RAP2 (706–1241) (human) (UniProt Q96SN8).
T1 sequence: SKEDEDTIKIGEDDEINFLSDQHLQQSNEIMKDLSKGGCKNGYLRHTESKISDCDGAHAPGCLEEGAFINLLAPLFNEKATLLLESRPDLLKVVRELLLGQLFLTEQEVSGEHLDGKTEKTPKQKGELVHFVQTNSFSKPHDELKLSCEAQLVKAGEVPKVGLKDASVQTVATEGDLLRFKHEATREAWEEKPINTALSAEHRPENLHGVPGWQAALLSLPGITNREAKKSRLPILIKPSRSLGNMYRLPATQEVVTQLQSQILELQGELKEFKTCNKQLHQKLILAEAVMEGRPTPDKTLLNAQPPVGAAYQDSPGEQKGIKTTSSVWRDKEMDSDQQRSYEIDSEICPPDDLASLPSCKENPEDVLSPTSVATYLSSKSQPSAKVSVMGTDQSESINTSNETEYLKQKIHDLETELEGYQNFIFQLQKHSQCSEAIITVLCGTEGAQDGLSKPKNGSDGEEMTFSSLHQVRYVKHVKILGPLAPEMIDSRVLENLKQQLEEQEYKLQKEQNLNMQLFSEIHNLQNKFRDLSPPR
Kind of experiment: affinity purification with mass spectrometry; anti-FLAG immunoprecipitation from HEK293T cells transfected with FLAG-CDK5RAP2 (706–1241) or empty vector; bands cut from stained SDS-PAGE gels, tandem mass spectrometry.

Amino acid sequences for entries named in this document (tags omitted).
UniProt P63167: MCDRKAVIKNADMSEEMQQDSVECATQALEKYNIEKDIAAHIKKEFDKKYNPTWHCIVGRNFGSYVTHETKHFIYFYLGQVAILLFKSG

Results are given in words; binding and its absence hold for the method and conditions named. Binding seen in cells or lysates may run through a third protein. A yes stands for co-enrichment or nearness to the bait. Other partners may have been found. Sequences can lack the tags named with a protein.

For 1 substance, binding results are on record in publication PMC3714271.

Regarding “dynein light chain 8 (from UniProt P63167 1-89)”, the binding result is on record as “binds”.
